These are yes or no findings as the source states them, for the method shown. In cells and extracts the contact can be indirect. These calls come from enrichment with a bait or labelling near it, and not all partners need be listed.
Target: TbPRMT1 prozyme subunit, C-terminally Myc-His-TAP-tagged (PRO-MHT) (T. brucei)
Assay: affinity purification with mass spectrometry; PRO-MHT expressed in procyclic-form T. brucei and purified with associated proteins; complexes eluted by TEV protease cleavage; cells without induced PRO-MHT as negative control; proteins with <2.5x peptides over the negative control removed

binding: binds
B1: TbPRMT1 enzymatic subunit (ENZ) (protein, UniProt Q4GYA9 1-345)
chain: MTVDANAASSTTTTTDYYFDSYSHYGIHMEMLKDCHRTTSYRDAMWRNAYLFKDKVVLDVGCGTGILSMFAAKAGARKVIGVDCSTVAVQAREIVRDNGFEDVITIIQGKVEEIQLDEKVDIIISEWMGYFLLYESMLNTVLYARDNLGTPDVKMFPDKANMHVCGITDEQYIQERFNIWDNVQGIDFSYFKRLSFIEPLVDTVERSQIVTNVAPLVSFDINTVKEADLSFTSEFALEAQASRGKRNGGNSIIYVHALSVHFDTPFTAGHEVVILDTTPYSPPTHWRQTVLYLFNPLRMRAGERATFRMKCSPNALNGRDLDISLHVDFEGALQISHYDQDFRLR

Reference: publication PMC6299225
